The series in a line: Parallel artificial membrane permeability assay for the blood-brain barrier (PAMPA-BBB). As to conditions: pH 7.4, 4 h, 37 °C, mean ± SEM, n = 3, Pe > 1.5 high, < 1.5 low permeation predicted, read-out: Pe × 10^−6. The class given is in vitro ADME. The protocol:
The parallel artificial membrane permeability assay (PAMPA) for the blood-brain barrier (BBB) (Pion Inc., Billerica, MA, USA) was used to analyze whether the lichen secondary metabolites tested in this study were able to cross the BBB. The stock solutions (5 mg/mL) of tested compounds were prepared using DMSO. Next, the donor solution (24.75 μg/mL) using Prisma buffer (pH = 7.4; Prisma HT, Pion Inc., Billerica, MA, USA) were made. Firstly, 180 μL of the donor solution were added to the donor wells. Then the filter membranes were coated with 5 μL BBB-1 lipid solution (Pion Inc., Billerica, MA, USA) and the acceptor wells were filled with 200 μL BSB (Brain Sink Buffer, Pion Inc., Billerica, MA, USA). The plates were sandwiched together and incubated for 4 h at 37 °C (Thermo Scientific MaxQ 4450, Waltham, MA, USA). The results were determined by spectroscopic analysis (Multiskan GO microplate reader, Waltham, MA, USA), with the appropriate wavelength for a given compound (240 nm for […] salazinic acid, 250 nm for atranorin and squamatic acid, 263 nm for physodic acid, and 270 nm for lecanoric acid). […] Pe is the effective permeability coefficient (cm/s), VD-donor volume, VA-acceptor volume, Ceq-equilibrium concentration, Ceq=CD×VD+CA×VA/VD+VA , S-membrane area, and t-incubation time (in seconds). […] Samples were analyzed in triplicate, and the average was reported.

In PMC8997913, “Lichen Secondary Metabolites Inhibit the Wnt/β-Catenin Pathway in Glioblastoma Cells and Improve the Anticancer Effects of Temozolomide” (Cells, 2022) one finds Papp data, which are given here for one compound.

As for `CCN(CC)CC(=O)Nc1c(C)cccc1C` [Lidocaine, reference compound], the Papp at 4 h, 24.75 µg/mL was 25.5 ± 2.6 ×10⁻⁶ cm/s.
